PubChem BioAssay AID1259308, NCATS, 2017
The deposit covers about 59,000 reagents; below is an unselected part. About 1,510 of all reagents (2.6%) count as active. 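Calls use total luciferase alone and ignore viability, so some active siRNAs may act by altering cell number.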 A number with no mark means an inactive call. The numbers tell different reagents against one gene apart. Further read-outs or replicates are left out here. No sequences are given here.

Aim: 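Candidate targets for better recombinant protein yield in mammalian cells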 (primary screen)
Cell system: human HEK293 embryonic kidney cells stably expressing firefly luciferase (HEK-CMV-Luc2-Hygro)
Reagent: single siRNA against human genes, 0.8 pmol siRNA per well
Duration: 72 h
Detection: 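Reporter luminescence and viable-cell signal on separate replicate plates, given as percent of non-targeting control and median/MAD z-scores, plus per-cell luciferase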
Reading the numbers: total luciferase, z-score and total luciferase, % of control: higher = more reporter protein produced
Rule for the call: 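Active when the median/MAD z-score for overall luciferase is greater than 3; a gene was taken forward for validation with new siRNAs if at least two of its three siRNAs passed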
Calls: active = raised luciferase; inactive = no rise

GRHL3 (grainyhead like transcription factor 3) #1
- total luciferase, z-score: -1.24
- total luciferase, % of control: 57.2

GRHL3 (grainyhead like transcription factor 3) #2
- total luciferase, z-score: -0.599
- total luciferase, % of control: 70

GRHL3 (grainyhead like transcription factor 3) #3
- total luciferase, z-score: 0.0262
- total luciferase, % of control: 82.4

IKZF1 (IKAROS family zinc finger 1) #1
- total luciferase, z-score: 0.69
- total luciferase, % of control: 95.6

IKZF1 (IKAROS family zinc finger 1) #2
- total luciferase, z-score: -1.75
- total luciferase, % of control: 47.2

IKZF1 (IKAROS family zinc finger 1) #3
- total luciferase, z-score: 2.16
- total luciferase, % of control: 125

ZNF322 (zinc finger protein 322) #1
- total luciferase, z-score: -0.255
- total luciferase, % of control: 76.8

ZNF322 (zinc finger protein 322) #2
- total luciferase, z-score: 0.0312
- total luciferase, % of control: 82.5

ZNF322 (zinc finger protein 322) #3
- total luciferase, z-score: 4 (active)
- total luciferase, % of control: 161

MAPRE3 (microtubule associated protein RP/EB family member 3) #1
- total luciferase, z-score: -0.158
- total luciferase, % of control: 78.7

MAPRE3 (microtubule associated protein RP/EB family member 3) #2
- total luciferase, z-score: -0.329
- total luciferase, % of control: 75.4

MAPRE3 (microtubule associated protein RP/EB family member 3) #3
- total luciferase, z-score: 0.0261
- total luciferase, % of control: 82.4
